In brackets after ≈: the same amount, converted by molar mass.
Test system: Escherichia coli (E. coli)
Test: In vitro antibacterial activity of VAN formulations (OD 600 nm)
Assay type: cell-based
Settings: 18 h, read-out: minimum inhibitory concentration (MIC)
Description: The use of nanoparticles as a delivery vehicle for antibiotics provides a promising strategy through prolonged drug circulation half-life, increased availability of drugs interacting with membrane molecules and promoted sustained drug release. VAN is an antibiotic useful for the treatment of a number of bacterial infections since it inhibits the cell wall synthesis in susceptible bacteria. […] The in vitro antibacterial activity of VAN, MHS200-VAN and RMHS200-VAN was evaluated by monitoring the optical density (OD) at 600 nm of a bacterial suspension. E. coli (1×10^6 CFU mL^−1) was incubated in Luria-Bertani (LB) medium in a 1.5 ml centrifuge tube at various concentrations of VAN for 18 h. […] This value reduced to 20 μg ml^−1 for RMHS200-VAN which is lower than the dosage used with VAN conjugated MCM-41 (200 μg ml^−1) in in-vitro E. coli culture at 18 h. In a separate experiment, MHS200-VAN, RMHS200-VAN and free VAN with the same VAN content of 25 μg ml^−1 were incubated with 1×10^6 CFU mL^−1 E. Coli in LB media and OD was measured as a function of time.

## CN[C@H](CC(C)C)C(=O)N[C@H]1C(=O)N[C@@H](CC(N)=O)C(=O)N[C@H]2C(=O)N[C@H]3C(=O)N[C@H](C(=O)N[C@H](C(=O)O)c4cc(O)cc(O)c4-c4cc3ccc4O)[C@H](O)c3ccc(c(Cl)c3)Oc3cc2cc(c3O[C@@H]2O[C@H](CO)[C@@H](O)[C@H](O)[C@H]2O[C@H]2C[C@](C)(N)[C@H](O)[C@H](C)O2)Oc2ccc(cc2Cl)[C@H]1O [free VAN, vancomycin]
  MIC: 25 µg/mL (≈ 17.3 µM)
